Data: PubChem BioAssay AID2685 (National Center for Advancing Translational Sciences (NCATS), 2010)
Some of the results follow. Further columns of the screen follow, without active or inactive calls. The list favours compounds with an active or inconclusive main result. Potencies come from curve fits of mixed quality, noted in brackets.

Test: qHTS Assay for Lipid Storage Modulators in Drosophila S3 Cells;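 as to cell number change: cells counted by Cell Tracker Red CMTPX staining in the red channel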
Conditions: BODIPY lipid droplet fluorescence, 18-24 h; for cell number change: measured here: cell count max response, cells fed with added oleic acid
Procedure, shortened: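 Laser-scanning cytometry quantifies lipid droplet accumulation (500–530 nm total intensity; droplet/cell object ratio) in oleic acid-fed (400 uM added) Drosophila S3 cells treated with a concentration series. 20 uM Triacsin C defined 100% inhibition.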

[1] = measured here: lipid fluorescence (Fed channel) AC50, cells fed with added oleic acid
[2] = measured here: cell number channel AC50, cells fed with added oleic acid

SMILES	cell number change [%]	AC50 [1]	AC50 [2]
CCOC(=O)c1[nH]c(CSc2nnc(-c3ccc(OC)cc3)o2)c(C(=O)OCC)c1C	-8.2	2.06 µM [rising, partial curve]	
c1coc(Cn2c(-c3ccco3)nc3ccccc32)c1	13.3	7.31 µM [rising, partial curve, poor fit]	
CC(C)=CC(=O)Nc1c(C)cc(C)cc1Cl	-11.4	4.11 µM [falling, full curve]	
Cc1ccc(NC(=S)Nc2ccc(OC(F)F)c(Cl)c2)cc1F	-49.6	8.2 µM [falling, partial curve]	29.1 µM [falling, single point]
CCCOc1ccc(C2(C(=O)O)CCCC2)cc1	-13		5.8 µM [falling, single point]
COc1ccc(NC(=O)COC(=O)C23CC4CC(CC(Cl)(C4)C2)C3)c(OC)c1	-21.5	29.1 µM [falling, single point]	
Cc1nnc(SCC(=O)Nc2ccc3c(c2)OCO3)s1	-2.42		
O=C(N/N=C/c1cccc(F)c1)c1cc(-c2ccco2)nc2ccccc12	-21.7		
CCn1c(=O)n(Cc2ccco2)c(=N)c2c3c(sc21)COC(C)(C)C3		16.4 µM [rising, partial curve, poor fit]	
COc1cc2cc3c(N)c(C(=O)Nc4sc(C)c(C)c4C#N)sc3nc2cc1OC	-54.8	13 µM [falling, partial curve]	13 µM [falling, partial curve]
O=C(NCc1ccco1)c1cccc(F)c1	-28.5	2.91 µM [falling, partial curve, poor fit]	1.64 µM [falling, full curve, poor fit]
COC(=O)c1[nH]c2c(c1C)C(=O)CC(c1cccs1)C2 (stereo not given)	-1.83	1.16 µM [rising, full curve]	
Cc1nc(SCC(=O)NCc2cccs2)nc(C)c1C	17.2	0.411 µM [rising, partial curve, poor fit]	
CCc1nnc(NC(=O)c2csc3c2CCC(C)C3)s1 (stereo not given)	-4.5	0.082 µM [falling, full curve]	
Cc1cccc(C(=O)NNC(=O)c2c(-c3ccccc3Cl)noc2C)c1O	-24.4	5.17 µM [falling, single point]	
CCc1ccc(CNc2ccc3c(c2)ncn3C(C)(C)C)cc1	-11.8		
COc1ccc(CC(=O)Oc2ccc(C(C)C)cc2)cc1S(=O)(=O)N1CCOCC1	-15.7	0.0146 µM [falling, full curve, poor fit]	
O=C(Nc1nnc(SCc2cccnc2)s1)C1CC(=O)N(c2ccccc2)C1 (stereo not given)	31.9	0.282 µM [rising, full curve, poor fit]	20 µM [rising, partial curve, poor fit]
Cc1cc(NS(=O)(=O)c2ccc(NC(=S)NC(=O)c3ccc(F)cc3Cl)cc2)no1	57.7	0.326 µM [rising, partial curve, poor fit]	29.1 µM [rising, single point]
COc1ccc(CN2CCn3nc(C(=O)NC(C)C)cc3C2=O)cc1	-1.63		
Cc1cccc(OC(=O)c2ccc3nccnc3c2)c1	-35.2	29.1 µM [falling, single point]	0.411 µM [falling, full curve]
CCOc1ccc(NC(=O)c2ccccc2OCC(=O)c2ccccc2)cc1	84.3	3.66 µM [rising, full curve]	2.31 µM [rising, full curve]
CC1(C)Cc2c(sc(NC(=O)COc3ccc(Cl)cc3Cl)c2C(N)=O)C(C)(C)N1	4.83	0.0259 µM [rising, full curve, poor fit]	
CCn1cc(S(=O)(=O)c2ccccc2)c(=O)c2cc(F)c(N3CCN(C)CC3)cc21	-44.7		29.1 µM [falling, single point]
Cc1ccc(NCc2n[nH]c(=S)n2Cc2ccccc2)cc1Cl	-33.3	23.1 µM [falling, single point]	29.1 µM [falling, single point]
O=C1NC(Cc2ccccc2)c2nc3cc(F)ccc3c(=O)n2-c2ccc(Cl)cc21 (stereo not given)	-41.6	0.00461 µM [rising, full curve, poor fit]	29.1 µM [falling, single point]
O=C(COc1ncnc2ccc(Br)cc12)NCc1ccc2c(c1)OCO2	52.5		2.31 µM [rising, partial curve]
CCOC(=O)C1C(c2ccccc2Cl)NC(=O)N(C)C1(O)C(F)(F)F (stereo not given)	-17.9	29.1 µM [falling, partial curve, poor fit]	

SMILES	cell number change [%]	AC50 [1]	AC50 [2]
CNC(=O)c1ccsc1NC(=O)CCS(=O)(=O)c1ccc(Cl)cc1			1.3 µM [rising, partial curve]
O=C(CSCc1ccccc1Cl)NN1C(=O)c2ccccc2C1=O	64.7	29.1 µM [rising, single point]	
CCc1cc(=O)oc2cc(C)cc(O)c12	-32.4	0.0517 µM [falling, full curve, poor fit]	0.00461 µM [falling, full curve, poor fit]
O=C(Nc1ccccc1Cc1ccccc1)c1ccccc1NS(=O)(=O)c1ccc(Cl)s1	-17.5	3.26 µM [falling, partial curve]	5.17 µM [rising, single point]
Cc1ccc(-c2nn3c(C)nnc3s2)cc1NC(=O)c1ccc(OC(C)C)cc1	-24.2	1.46 µM [falling, partial curve]	
CC(C)CC(C(=O)O)N1C(=O)C2C3C=CC(C2C1=O)C1C(=O)N(C(CC(C)C)C(=O)O)C(=O)C31 (stereo not given)	-14.5		
COc1ccc(-c2ccnc(SCC(=O)c3ccc(OC)c(OC)c3)n2)cc1	16.7	20.6 µM [rising, single point]	
CC(C)NC(=S)N1CCN(Cc2ccc3c(c2)OCO3)CC1	105		23.1 µM [rising, partial curve]
CN(Cc1ccccc1)C(=O)COC(=O)c1cc(NS(=O)(=O)c2cccs2)ccc1O		6.51 µM [falling, single point]	
Nc1ncn(CC(=O)c2ccccc2)n1	-9.85	0.00411 µM [falling, full curve, poor fit]	0.00461 µM [falling, full curve, poor fit]
COc1cccc(OCCn2cc(C=O)c3ccccc32)c1	-16.1	7.31 µM [rising, partial curve]	
COc1ccc(/C=N/NC(=O)c2nnn(-c3nonc3N)c2-c2cccs2)cc1OC	23.6	0.146 µM [rising, full curve, poor fit]	
O=C(Nc1ccccc1N1CCOCC1)c1ccc(Br)o1			1.3 µM [rising, single point]
CN1C(c2ccccc2)CC(=NO)CC1c1ccccc1 (stereo not given)	-40.2		32.6 µM [falling, single point]
O=C1NC(=S)S/C1=C\c1ccc2ccccc2c1	-0.874	0.13 µM [falling, full curve, poor fit]	
Cc1cc(C)c(C#N)c(SCS(=O)Cc2ccccc2)n1 (stereo not given)	-27.9	7.31 µM [falling, partial curve]	
CC(C)CNC(=O)c1c(N)n(/N=C/c2cccnc2)c2nc3ccccc3nc12	14.1	0.146 µM [rising, full curve, poor fit]	
COc1ccc(-n2nc3cc(N)c(Br)cc3n2)cc1	-28.8	29.1 µM [falling, single point]	
Cc1cc(C(=O)OCC(=O)c2ccc(Cl)c([N+](=O)[O-])c2)c2cccc(C)c2n1	-43.8	1.03 µM [falling, full curve]	1.03 µM [falling, full curve]
Cc1ccccc1OCc1nc2ccccc2c(=O)n1/N=C/c1cn[nH]c1-c1ccccc1	-31	0.82 µM [rising, partial curve]	32.6 µM [falling, single point]
CCN(CC)CCOC(=O)C1(c2ccccc2)CCOCC1	-7.57	1.3 µM [rising, full curve, poor fit]	
COc1ccc(CC(=O)NCc2n[nH]c(=S)n2-c2ccccc2OC)cc1	-28.5	29.1 µM [falling, single point]	
CCS(=O)(=O)c1nc(S(=O)(=O)c2ccc(Cl)cc2)c(N2CCC3(CC2)OCCO3)s1		6.51 µM [rising, single point]	
CCN(CC)C(=O)CC(c1ccc2c(c1)OCO2)c1c(OC)cc(OC)c2c(-c3ccccc3)cc(=O)oc12 (stereo not given)	1.31	2.31 µM [rising, partial curve]	
O=C(CSc1nnc(-c2ccco2)n1-c1ccccc1)N1CCN(C(=O)c2ccco2)CC1	134	16.4 µM [rising, partial curve]	18.4 µM [rising, partial curve]
CC(=O)Nc1sc(C)c(C)c1C(=O)OCC(=O)Nc1ccccc1	-72.8	18.4 µM [falling, partial curve]	20.6 µM [falling, partial curve]
CC(C)N(C(=O)COC(=O)[C@@H]1CC(O)CN1S(=O)(=O)c1ccc(C(C)(C)C)cc1)C(C)C (stereo not given in full)			6.51 µM [rising, partial curve, poor fit]

Limited to cell number change [%] (2 entries from above):
SMILES	cell number change [%]
Cc1cccc(C(=O)NNC(=O)c2c(-c3ccccc3Cl)noc2C)c1O	-24.4
Cc1ccccc1OCc1nc2ccccc2c(=O)n1/N=C/c1cn[nH]c1-c1ccccc1	-31
